Results: paper PMC3514159
Results are given in words; binding and its absence hold for the method and conditions named. Binding seen in cells or lysates may run through a third protein. Some entries that bind do so weakly or less than the wild type.

By UniProt entry, the sequences of proteins in these tests, tags left out.
UniProt P49639: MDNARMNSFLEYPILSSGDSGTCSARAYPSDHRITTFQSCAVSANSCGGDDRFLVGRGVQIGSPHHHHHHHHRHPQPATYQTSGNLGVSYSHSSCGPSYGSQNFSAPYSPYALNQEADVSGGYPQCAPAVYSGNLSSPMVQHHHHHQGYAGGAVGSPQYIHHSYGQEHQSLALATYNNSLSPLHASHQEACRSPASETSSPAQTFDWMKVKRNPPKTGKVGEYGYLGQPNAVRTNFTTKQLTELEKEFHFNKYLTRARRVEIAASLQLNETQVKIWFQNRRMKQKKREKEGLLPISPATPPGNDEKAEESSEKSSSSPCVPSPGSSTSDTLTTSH
UniProt P09022: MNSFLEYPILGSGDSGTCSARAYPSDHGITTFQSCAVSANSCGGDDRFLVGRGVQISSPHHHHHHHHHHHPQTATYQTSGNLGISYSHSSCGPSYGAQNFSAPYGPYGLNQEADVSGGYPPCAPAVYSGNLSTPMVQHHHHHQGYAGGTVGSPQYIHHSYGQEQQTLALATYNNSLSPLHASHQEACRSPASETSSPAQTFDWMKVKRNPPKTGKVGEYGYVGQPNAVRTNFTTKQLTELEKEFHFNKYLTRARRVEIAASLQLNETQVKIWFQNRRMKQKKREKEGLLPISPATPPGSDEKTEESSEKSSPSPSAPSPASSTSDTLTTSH

How the values were obtained:
Assay in all cases: pull-down; GST-hORF and FLAG-Hoxa1 co-expressed in COS7 or HEK293T; cleared lysate (Tris-HCl pH7.5 20mM, NaCl 120mM, EDTA 0.5mM, NP40 0.5%, glycerol 10%) overnight on glutathione-agarose beads, 3 washes; anti-FLAG western blot
[1] = molecular target: T1, phospholipid scramblase 1 (human) (UniProt O15162)
T1 sequence: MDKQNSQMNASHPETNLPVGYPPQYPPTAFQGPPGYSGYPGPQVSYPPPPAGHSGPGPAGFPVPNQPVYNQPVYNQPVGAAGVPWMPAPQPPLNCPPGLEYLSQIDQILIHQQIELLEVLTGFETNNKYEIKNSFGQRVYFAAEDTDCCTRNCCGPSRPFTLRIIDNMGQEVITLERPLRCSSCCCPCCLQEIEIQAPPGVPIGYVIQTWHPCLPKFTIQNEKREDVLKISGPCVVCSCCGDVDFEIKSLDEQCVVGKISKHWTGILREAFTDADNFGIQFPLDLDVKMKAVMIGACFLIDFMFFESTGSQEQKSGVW

[2] = molecular target: homeobox A1 (human) (UniProt P49639)
[3] = molecular target: T2, zinc finger, ZZ-type containing 3 (human) (UniProt Q8IYH5)
T2 sequence: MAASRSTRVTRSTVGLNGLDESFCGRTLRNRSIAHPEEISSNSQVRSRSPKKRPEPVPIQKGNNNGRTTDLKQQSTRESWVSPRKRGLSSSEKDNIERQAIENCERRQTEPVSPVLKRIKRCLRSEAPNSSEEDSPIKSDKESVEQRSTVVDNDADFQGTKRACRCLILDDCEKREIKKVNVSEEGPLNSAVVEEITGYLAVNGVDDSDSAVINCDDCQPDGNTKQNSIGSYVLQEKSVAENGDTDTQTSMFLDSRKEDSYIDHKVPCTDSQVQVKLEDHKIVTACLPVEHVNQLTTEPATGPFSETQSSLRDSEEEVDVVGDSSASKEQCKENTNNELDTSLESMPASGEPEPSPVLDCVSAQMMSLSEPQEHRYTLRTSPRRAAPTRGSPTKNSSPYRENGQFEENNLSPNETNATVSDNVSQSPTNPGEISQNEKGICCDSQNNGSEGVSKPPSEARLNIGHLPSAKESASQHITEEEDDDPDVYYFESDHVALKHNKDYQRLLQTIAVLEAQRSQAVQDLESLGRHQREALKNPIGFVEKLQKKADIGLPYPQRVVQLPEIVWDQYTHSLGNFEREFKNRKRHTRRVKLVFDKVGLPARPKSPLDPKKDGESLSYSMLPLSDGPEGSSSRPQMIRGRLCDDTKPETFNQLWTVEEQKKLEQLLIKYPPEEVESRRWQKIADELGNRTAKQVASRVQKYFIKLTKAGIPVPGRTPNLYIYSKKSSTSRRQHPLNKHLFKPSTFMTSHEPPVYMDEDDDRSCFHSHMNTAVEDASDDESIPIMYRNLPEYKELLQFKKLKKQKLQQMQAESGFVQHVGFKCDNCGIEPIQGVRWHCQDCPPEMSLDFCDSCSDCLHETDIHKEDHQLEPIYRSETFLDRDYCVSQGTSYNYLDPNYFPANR

[4] = molecular target: RNA binding protein with multiple splicing (human) (UniProt Q93062)
[5] = molecular target: T3, MyoD family inhibitor (human) (UniProt Q99750)
T3 sequence: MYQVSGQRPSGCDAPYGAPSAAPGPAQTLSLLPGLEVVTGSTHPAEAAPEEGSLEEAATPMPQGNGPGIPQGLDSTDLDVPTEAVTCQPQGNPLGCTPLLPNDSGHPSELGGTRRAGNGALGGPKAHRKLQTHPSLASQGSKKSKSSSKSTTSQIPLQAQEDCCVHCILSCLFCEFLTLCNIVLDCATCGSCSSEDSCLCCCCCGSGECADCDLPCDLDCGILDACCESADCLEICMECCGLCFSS

[6] = molecular target: T4, TNF receptor-associated factor 2 (human) (UniProt Q12933)
T4 sequence: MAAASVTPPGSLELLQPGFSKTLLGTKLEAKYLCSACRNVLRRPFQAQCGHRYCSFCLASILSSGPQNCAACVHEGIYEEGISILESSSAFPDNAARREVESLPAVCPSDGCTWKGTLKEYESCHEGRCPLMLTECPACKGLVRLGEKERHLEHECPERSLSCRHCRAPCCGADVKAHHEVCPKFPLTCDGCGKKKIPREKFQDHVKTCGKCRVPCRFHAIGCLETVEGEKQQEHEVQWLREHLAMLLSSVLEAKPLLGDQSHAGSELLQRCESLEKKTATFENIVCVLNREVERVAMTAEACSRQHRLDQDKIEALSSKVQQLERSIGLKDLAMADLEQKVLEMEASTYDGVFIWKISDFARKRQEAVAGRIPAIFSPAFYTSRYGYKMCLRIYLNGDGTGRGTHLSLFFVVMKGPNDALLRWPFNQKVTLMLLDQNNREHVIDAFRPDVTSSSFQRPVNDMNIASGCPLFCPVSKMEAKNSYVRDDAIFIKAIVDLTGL

binding [1]: binds | binding [2]: binds | binding [3]: binds | binding [4]: binds | binding [5]: binds | binding [6]: binds
Substance: FLAG-Hoxa1 (from UniProt P09022 1-331)
